Assay results reported in publication PMC10277729.

Chains of the proteins cited; added tags and fusions are not shown. Residues count along the entry.
UniProt P52948, residues 1-880: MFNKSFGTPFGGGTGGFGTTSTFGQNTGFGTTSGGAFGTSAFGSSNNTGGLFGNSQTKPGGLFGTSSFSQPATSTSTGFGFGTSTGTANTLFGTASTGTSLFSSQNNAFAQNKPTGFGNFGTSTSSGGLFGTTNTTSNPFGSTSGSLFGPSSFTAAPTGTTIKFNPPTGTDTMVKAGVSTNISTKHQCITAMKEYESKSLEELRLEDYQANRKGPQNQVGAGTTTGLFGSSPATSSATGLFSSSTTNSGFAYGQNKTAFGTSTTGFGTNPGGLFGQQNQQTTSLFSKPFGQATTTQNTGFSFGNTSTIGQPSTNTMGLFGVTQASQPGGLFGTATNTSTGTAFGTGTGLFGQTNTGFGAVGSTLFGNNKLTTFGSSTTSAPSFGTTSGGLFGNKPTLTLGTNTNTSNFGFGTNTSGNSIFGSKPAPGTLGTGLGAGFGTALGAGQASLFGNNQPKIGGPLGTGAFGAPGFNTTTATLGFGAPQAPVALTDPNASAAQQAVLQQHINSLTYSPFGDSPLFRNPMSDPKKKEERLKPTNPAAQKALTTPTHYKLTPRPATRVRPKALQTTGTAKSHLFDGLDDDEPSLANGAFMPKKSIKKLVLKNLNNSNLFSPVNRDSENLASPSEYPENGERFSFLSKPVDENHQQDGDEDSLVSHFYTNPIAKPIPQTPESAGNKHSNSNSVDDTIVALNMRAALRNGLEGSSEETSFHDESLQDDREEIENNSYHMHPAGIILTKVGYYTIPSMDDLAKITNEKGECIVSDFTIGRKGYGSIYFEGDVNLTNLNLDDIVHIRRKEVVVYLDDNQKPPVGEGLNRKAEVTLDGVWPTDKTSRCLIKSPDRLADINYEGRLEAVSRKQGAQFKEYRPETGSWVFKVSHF

T1: FLAG-FAM111B (human) (UniProt Q6SJ93)
T1 sequence: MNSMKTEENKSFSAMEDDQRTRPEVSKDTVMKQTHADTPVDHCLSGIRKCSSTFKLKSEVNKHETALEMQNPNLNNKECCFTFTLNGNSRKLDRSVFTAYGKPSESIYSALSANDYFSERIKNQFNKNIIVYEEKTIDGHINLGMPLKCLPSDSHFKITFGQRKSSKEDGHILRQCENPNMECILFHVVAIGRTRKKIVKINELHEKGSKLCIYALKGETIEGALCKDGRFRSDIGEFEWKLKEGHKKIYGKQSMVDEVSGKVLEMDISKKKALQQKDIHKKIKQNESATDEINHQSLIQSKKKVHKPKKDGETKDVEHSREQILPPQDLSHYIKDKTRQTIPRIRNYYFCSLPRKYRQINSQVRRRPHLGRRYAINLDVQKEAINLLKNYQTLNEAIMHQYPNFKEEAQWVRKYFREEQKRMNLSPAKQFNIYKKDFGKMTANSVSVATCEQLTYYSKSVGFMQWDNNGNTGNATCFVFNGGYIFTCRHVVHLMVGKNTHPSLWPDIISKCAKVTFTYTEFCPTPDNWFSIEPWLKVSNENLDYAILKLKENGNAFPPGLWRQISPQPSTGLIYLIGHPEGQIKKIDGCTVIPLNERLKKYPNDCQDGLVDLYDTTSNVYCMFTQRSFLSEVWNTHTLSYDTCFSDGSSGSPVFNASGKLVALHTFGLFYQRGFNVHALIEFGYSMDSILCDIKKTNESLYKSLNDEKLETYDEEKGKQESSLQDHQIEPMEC

B1: NUP42 (protein, UniProt O15504 1-423)
chain: MAICQFFLQGRCRFGDRCWNEHPGARGAGGGRQQPQQQPSGNNRRGWNTTSQRYSNVIQPSSFSKSTPWGGSRDQEKPYFSSFDSGASTNRKEGFGLSENPFASLSPDEQKDEKKLLEGIVKDMEVWESSGQWMFSVYSPVKKKPNISGFTDISPEELRLEYHNFLTSNNLQSYLNSVQRLINQWRNRVNELKSLNISTKVALLSDVKDGVNQAAPAFGFGSSQAATFMSPGFPVNNSSSDNAQNFSFKTNSGFAAASSGSPAGFGSSPAFGAAASTSSGISTSAPAFGFGKPEVTSAASFSFKSPAASSFGSPGFSGLPASLATGPVRAPVAPAFGGGSSVAGFGSPGSHSHTAFSKPSSDTFGNSSISTSLSASSSIIATDNVLFTPRDKLTVEELEQFQSKKFTLGKIPLKPPPLELLNV
B2: RAE1 (protein, UniProt P78406 1-368)
chain: MSLFGTTSGFGTSGTSMFGSATTDNHNPMKDIEVTSSPDDSIGCLSFSPPTLPGNFLIAGSWANDVRCWEVQDSGQTIPKAQQMHTGPVLDVCWSDDGSKVFTASCDKTAKMWDLSSNQAIQIAQHDAPVKTIHWIKAPNYSCVMTGSWDKTLKFWDTRSSNPMMVLQLPERCYCADVIYPMAVVATAERGLIVYQLENQPSEFRRIESPLKHQHRCVAIFKDKQNKPTGFALGSIEGRVAIHYINPPNPAKDNFTFKCHRSNGTNTSAPQDIYAVNGIAFHPVHGTLATVGSDGRFSFWDKDARTKLKTSEQLDQPISACCFNHNGNIFAYASSYDWSKGHEFYNPQKKNYIFLRNAAEELKPRNKK

molecular target: T1, FLAG-FAM111B (human); assay: affinity purification with mass spectrometry; FLAG-IP of FLAG-FAM111B (M2 anti-FLAG agarose, eluted with 3xFLAG peptide), eluate digested with trypsin, label-free quantitation against a FLAG control, two biological repeats

| binding | Molecule |
| --- | --- |
| binds | NUP98 (from UniProt P52948 1-880) |
| binds | B1 |
| binds | B2 |

Results are given in words; binding and its absence hold for the method and conditions named. In cells and extracts the contact can be indirect. Here binding means that the protein was enriched with, or labelled near, the bait; the list need not be complete. Where a sequence is shown, tags or fusion partners need not be part of it.
